The source of these data is patent US10858423B2 (PIERRE FABRE MEDICAMENT, priority 2015, dated 2020).

The data set in a line: general procedure: solution-phase peptide synthesis; DEPC/DIEA; HATU/DIEA.

“methyl (S)-2-((2R,3R)-3-((S)-1-((3R,4S,5S)-4-((S)-2-((S)-2-((3-aminobenzyl) (methyl)amino)-3-methylbutanamido)-N,3-dimethylbutanamido)-3-methoxy-5-methylheptanoyl)pyrrolidin-2-yl)-3-methoxy-2-methylpropanamido)-3-phenylpropanoate”: for the setting “late stage modification step”, the step yield was 19%. For the same substance, the “final HPLC purity” value (late stage modification step, 210 nm) was 91.1%.

Substance “methyl (S)-2-((2R,3R)-3-((S)-1-((3R,4S,5S)-4-((S)-2-((S)-2-((3-aminopropyl)(methyl)amino)-3-methylbutanamido)-N,3-dimethylbutanamido)-3-methoxy-5-methylheptanoyl)pyrrolidin-2-yl)-3-methoxy-2-methylpropanamido)-3-phenylpropanoate” came in with a step yield (coupling step) of 26%. For the same substance, the “final HPLC purity” value (coupling step, 210 nm) is given as 91.5%.

“methyl (S)-2-((2R,3R)-3-((S)-1-((3R,4S,5S)-4-((S)-2-amino-N,3-dimethylbutanamido)-3-methoxy-5-methylheptanoyl)pyrrolidin-2-yl)-3-methoxy-2-methylpropanamido)-3-phenylpropanoate”: the step yield (late stage modification step) turned out to be 81%.

For the setting “coupling step”, “methyl (S)-2-((2R,3R)-3-((S)-1-((3R,4S,5S)-4-((S)—N,3-dimethyl-2-((S)-3-methyl-2-(methyl(4-(methylamino)phenethyl)amino)butanamido)butanamido)-3-methoxy-5-methylheptanoyl)pyrrolidin-2-yl)-3-methoxy-2-methylpropanamido)-3-phenylpropanoate” yielded a step yield of 7%. In addition, for the setting “coupling step, 254 nm”, the “final HPLC purity” value came to 90.6%.
